# US12099068B2, “Biomarkers for graft-versus-host disease” (Incyte Corporation, priority 2018, dated 2024)
# B1: TWEAK (protein, UniProt O43508 94-249, looked up)
# Tumor necrosis factor ligand …: SAPKGRKTRARRAIAAHYEVHPRPGQDGAQAGVDGTVSGWEEARINSSSPLRYNRQIGEFIVTRAGLYYLYCQVHFDEGKAVYLKLDLLVDGVLALRCLEEFSATAASSLGPQLRLCQVSGLLALRPGSSLRIRTLPWAHLKAAPFLTYFGLFQVH
# B2: TN-R (protein, UniProt Q92752 32-1358, looked up)
# Tenascin-R: QLEVTTERVQRQSVEEEGGIANYNTSSKEQPVVFNHVYNINVPLDNLCSSGLEASAEQEVSAEDETLAEYMGQTSDHESQVTFTHRINFPKKACPCASSAQVLQELLSRIEMLEREVSVLRDQCNANCCQESAATGQLDYIPHCSGHGNFSFESCGCICNEGWFGKNCSEPYCPLGCSSRGVCVDGQCICDSEYSGDDCSELRCPTDCSSRGLCVDGECVCEEPYTGEDCRELRCPGDCSGKGRCANGTCLCEEGYVGEDCGQRQCLNACSGRGQCEEGLCVCEEGYQGPDCSAVAPPEDLRVAGISDRSIELEWDGPMAVTEYVISYQPTALGGLQLQQRVPGDWSGVTITELEPGLTYNISVYAVISNILSLPITAKVATHLSTPQGLQFKTITETTVEVQWEPFSFSFDGWEISFIPKNNEGGVIAQVPSDVTSFNQTGLKPGEEYIVNVVALKEQARSPPTSASVSTVIDGPTQILVRDVSDTVAFVEWIPPRAKVDFILLKYGLVGGEGGRTTFRLQPPLSQYSVQALRPGSRYEVSVSAVRGTNESDSATTQFTTEIDAPKNLRVGSRTATSLDLEWDNSEAEVQEYKVVYSTLAGEQYHEVLVPRGIGPTTRATLTDLVPGTEYGVGISAVMNSQQSVPATMNARTELDSPRDLMVTASSETSISLIWTKASGPIDHYRITFTPSSGIASEVTVPKDRTSYTLTDLEPGAEYIISVTAERGRQQSLESTVDAFTGFRPISHLHFSHVTSSSVNITWSDPSPPADRLILNYSPRDEEEEMMEVSLDATKRHAVLMGLQPATEYIVNLVAVHGTVTSEPIVGSITTGIDPPKDITISNVTKDSVMVSWSPPVASFDYYRVSYRPTQVGRLDSSVVPNTVTEFTITRLNPATEYEISLNSVRGREESERICTLVHTAMDNPVDLIATNITPTEALLQWKAPVGEVENYVIVLTHFAVAGETILVDGVSEEFRLVDLLPSTHYTATMYATNGPLTSGTISTNFSTLLDPPANLTASEVTRQSALISWQPPRAEIENYVLTYKSTDGSRKELIVDAEDTWIRLEGLLENTDYTVLLQAAQDTTWSSITSTAFTTGGRVFPHPQDCAQHLMNGDTLSGVYPIFLNGELSQKLQVYCDMTTDGGGWIVFQRRQNGQTDFFRKWADYRVGFGNVEDEFWLGLDNIHRITSQGRYELRVDMRDGQEAAFASYDRFSVEDSRNLYKLRIGSYNGTAGDSLSYHQGRPFSTEDRDNDVAVTNCAMSYKGAWWYKNCHRTNLNGKYGESRHSQGINWYHWKGHEFSIPFVEMKMRPYNHRLMAGRKRQSLQF
# B3: HSD11B1 (protein, UniProt P28845 1-292, looked up)
# 11-beta-hydroxysteroid …: MAFMKKYLLPILGLFMAYYYYSANEEFRPEMLQGKKVIVTGASKGIGREMAYHLAKMGAHVVVTARSKETLQKVVSHCLELGAASAHYIAGTMEDMTFAEQFVAQAGKLMGGLDMLILNHITNTSLNLFHDDIHHVRKSMEVNFLSYVVLTVAALPMLKQSNGSIVVVSSLAGKVAYPMVAAYSASKFALDGFFSSIRKEYSVSRVNVSITLCVLGLIDTETAMKAVSGIVHMQAAPKEECALEIIKGGALRQEEVYYDSSLWTTLLIRNPCRKILEFLYSTSYNMDRFINK
# B4: MVK (protein, UniProt Q03426 1-396, looked up)
# Mevalonate kinase: MLSEVLLVSAPGKVILHGEHAVVHGKVALAVSLNLRTFLRLQPHSNGKVDLSLPNIGIKRAWDVARLQSLDTSFLEQGDVTTPTSEQVEKLKEVAGLPDDCAVTERLAVLAFLYLYLSICRKQRALPSLDIVVWSELPPGAGLGSSAAYSVCLAAALLTVCEEIPNPLKDGDCVNRWTKEDLELINKWAFQGERMIHGNPSGVDNAVSTWGGALRYHQGKISSLKRSPALQILLTNTKVPRNTRALVAGVRNRLLKFPEIVAPLLTSIDAISLECERVLGEMGEAPAPEQYLVLEELIDMNQHHLNALGVGHASLDQLCQVTRARGLHSKLTGAGGGGCGITLLKPGLEQPEVEATKQALTSCGFDCLETSIGAPGVSIHSATSLDSRVQQALDGL
# B5: FOSB (protein, UniProt P53539 1-338, looked up)
# Protein FosB: MFQAFPGDYDSGSRCSSSPSAESQYLSSVDSFGSPPTAAASQECAGLGEMPGSFVPTVTAITTSQDLQWLVQPTLISSMAQSQGQPLASQPPVVDPYDMPGTSYSTPGMSGYSSGGASGSGGPSTSGTTSGPGPARPARARPRRPREETLTPEEEEKRRVRRERNKLAAAKCRNRRRELTDRLQAETDQLEEEKAELESEIAELQKEKERLEFVLVAHKPGCKIPYEEGPGPGPLAEVRDLPGSAPAKEDGFSWLLPPPPPPPLPFQTSQDAPPNLTASLFTHSEVQVLGDPFPVVNPSYTSSFVLTCPEVSAFAGAQRTSGSDQPSDPLNSPSLLAL
# B6: NFATC3 (protein, UniProt Q12968 2-1075, looked up)
# Nuclear factor of activated …: TTANCGAHDELDFKLVFGEDGAPAPPPPGSRPADLEPDDCASIYIFNVDPPPSTLTTPLCLPHHGLPSHSSVLSPSFQLQSHKNYEGTCEIPESKYSPLGGPKPFECPSIQITSISPNCHQELDAHEDDLQINDPEREFLERPSRDHLYLPLEPSYRESSLSPSPASSISSRSWFSDASSCESLSHIYDDVDSELNEAAARFTLGSPLTSPGGSPGGCPGEETWHQQYGLGHSLSPRQSPCHSPRSSVTDENWLSPRPASGPSSRPTSPCGKRRHSSAEVCYAGSLSPHHSPVPSPGHSPRGSVTEDTWLNASVHGGSGLGPAVFPFQYCVETDIPLKTRKTSEDQAAILPGKLELCSDDQGSLSPARETSIDDGLGSQYPLKKDSCGDQFLSVPSPFTWSKPKPGHTPIFRTSSLPPLDWPLPAHFGQCELKIEVQPKTHHRAHYETEGSRGAVKASTGGHPVVKLLGYNEKPINLQMFIGTADDRYLRPHAFYQVHRITGKTVATASQEIIIASTKVLEIPLLPENNMSASIDCAGILKLRNSDIELRKGETDIGRKNTRVRLVFRVHIPQPSGKVLSLQIASIPVECSQRSAQELPHIEKYSINSCSVNGGHEMVVTGSNFLPESKIIFLEKGQDGRPQWEVEGKIIREKCQGAHIVLEVPPYHNPAVTAAVQVHFYLCNGKRKKSQSQRFTYTPVLMKQEHREEIDLSSVPSLPVPHPAQTQRPSSDSGCSHDSVLSGQRSLICSIPQTYASMVTSSHLPQLQCRDESVSKEQHMIPSPIVHQPFQVTPTPPVGSSYQPMQTNVVYNGPTCLPINAASSQEFDSVLFQQDATLSGLVNLGCQPLSSIPFHSSNSGSTGHLLAHTPHSVHTLPHLQSMGYHCSNTGQRSLSSPVADQITGQPSSQLQPITYGPSHSGSATTASPAASHPLASSPLSGPPSPQLQPMPYQSPSSGTASSPSPATRMHSGQHSTQAQSTGQGGLSAPSSLICHSLCDPASFPPDGATVSIKPEPEDREPNFATIGLQDITLDDVNEIIGRDMSQISVSQGAGVSRQAPLPSPESLDLGRSDGL
# B7: CNTN1 (protein, UniProt Q12860 21-993, looked up)
# Contactin-1: EFTWYRRYGHGVSEEDKGFGPIFEEQPINTIYPEESLEGKVSLNCRARASPFPVYKWRMNNGDVDLTSDRYSMVGGNLVINNPDKQKDAGIYYCLASNNYGMVRSTEATLSFGYLDPFPPEERPEVRVKEGKGMVLLCDPPYHFPDDLSYRWLLNEFPVFITMDKRRFVSQTNGNLYIANVEASDKGNYSCFVSSPSITKSVFSKFIPLIPIPERTTKPYPADIVVQFKDVYALMGQNVTLECFALGNPVPDIRWRKVLEPMPSTAEISTSGAVLKIFNIQLEDEGIYECEAENIRGKDKHQARIYVQAFPEWVEHINDTEVDIGSDLYWPCVATGKPIPTIRWLKNGYAYHKGELRLYDVTFENAGMYQCIAENTYGAIYANAELKILALAPTFEMNPMKKKILAAKGGRVIIECKPKAAPKPKFSWSKGTEWLVNSSRILIWEDGSLEINNITRNDGGIYTCFAENNRGKANSTGTLVITDPTRIILAPINADITVGENATMQCAASFDPALDLTFVWSFNGYVIDFNKENIHYQRNFMLDSNGELLIRNAQLKHAGRYTCTAQTIVDNSSASADLVVRGPPGPPGGLRIEDIRATSVALTWSRGSDNHSPISKYTIQTKTILSDDWKDAKTDPPIIEGNMEAARAVDLIPWMEYEFRVVATNTLGRGEPSIPSNRIKTDGAAPNVAPSDVGGGGGRNRELTITWAPLSREYHYGNNFGYIVAFKPFDGEEWKKVTVTNPDTGRYVHKDETMSPSTAFQVKVKAFNNKGDGPYSLVAVINSAQDAPSEAPTEVGVKVLSSSEISVHWEHVLEKIVESYQIRYWAAHDKEEAANRVQVTSQEYSARLENLLPDTQYFIEVGACNSAGCGPPSDMIEAFTKKAPPSQPPRIISSVRSGSRYIITWDHVVALSNESTVTGYKVLYRPDGQHDGKLYSTHKHSIEVPIPRDGEYVVEVRAHSDGGDGVVSQVKIS
# B8: KYNU (protein, UniProt Q16719 1-465, looked up)
# Kynureninase: MEPSSLELPADTVQRIAAELKCHPTDERVALHLDEEDKLRHFRECFYIPKIQDLPPVDLSLVNKDENAIYFLGNSLGLQPKMVKTYLEEELDKWAKIAAYGHEVGKRPWITGDESIVGLMKDIVGANEKEIALMNALTVNLHLLMLSFFKPTPKRYKILLEAKAFPSDHYAIESQLQLHGLNIEESMRMIKPREGEETLRIEDILEVIEKEGDSIAVILFSGVHFYTGQHFNIPAITKAGQAKGCYVGFDLAHAVGNVELYLHDWGVDFACWCSYKYLNAGAGGIAGAFIHEKHAHTIKPALVGWFGHELSTRFKMDNKLQLIPGVCGFRISNPPILLVCSLHASLEIFKQATMKALRKKSVLLTGYLEYLIKHNYGKDKAATKKPVVNIITPSHVEERGCQLTITFSVPNKDVFQELEKRGVVCDKRNPNGIRVAPVPLYNSFHDVYKFTNLLTSILDSAETKN
# System: plasma proteins
# Experiment: Proteins of Table 11 stably expressed in complete responders between days 1 and 28, Example 5 (Table 12)
# Type: in vivo, human
# Conditions: day 1 vs day 28
# Protocol: Due to the limited sample size, steroid-naive (N=10) and steroid-refractory (N=18) patients were combined for further analysis. Broad proteomic analysis of over 1000 proteins was conducted by OLINK Proteomics (Watertown, MA) using a proximity extension assay as described by the manufacturer. Data are presented as normalized protein expression (NPX) in log 2 scale. Statistical differences were evaluated using unpaired and paired t tests, one-way […] (ANOVA), and Pearson Correlation. Significance was conferred when P<0.05.
Molecule,"Fold Change (D1 vs D28), proteins Up-Regulated in CR Compared to PD/Death","Fold Change (D1 vs D28), proteins Down-Regulated in CR Compared to PD/Death"
B1,−1.2551,
B2,1.1234,
B3,1.1146,
B4,,−1.2699
B5,,1.0051
B6,,1.0623
B7,1.1978,
B8,,−1.0138

# System: plasma proteins
# Experiment: OLINK proximity extension assay of baseline plasma, CR compared to PD/Death, updated classification, Example 5 (Table 11)
# Type: in vivo, human
# Conditions: itacitinib 200 or 300 mg QD plus corticosteroids, response at day 28
Molecule,"Fold Change, Up-Regulated in CR Compared to PD/Death","Fold Change, Down-Regulated in CR Compared to PD/Death"
B1,1.8183,
B2,1.8732,
B3,1.7507,
B4,,−2.6813
B5,,−2.6284
B6,,−2.5865
B7,1.791,
B8,,−2.9203
